Structures can show the parent of a compound that is named as a salt. Some of the results follow. Single values are uncertain here, since repeats match poorly.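 Wild-type human LRH-1, a heavily sumoylated nuclear receptor, is tetracycline-inducible in stable JEG3 cells. RT-qPCR measured SUMO-sensitive APOC3 and MUC1 transcripts, which rise with SUMO-less LRH-1 or UBC9 knockdown, versus TBP and DMSO controls. Robust Z-scores beyond ±2 flagged primary hits, followed by toxicity and TBP filtering.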

For the assay, the system named is JEG3 expressing hLRH-1. As to the kind of experiment: APOC3 transcript change (ddCt vs TBP and DMSO), Z-score over library; higher = higher APOC3 expression. As to conditions: 10 µM; time (hr): 24.
Regarding `CC(C)NCC(O)COc1ccc(CC(N)=O)cc1` (racemic) [(±)-Atenolol], the “APOC3 transcript change (Z-score)” value was 1.5.

For `OC(CCN1CCCC1)(c1ccccc1)C1CCCCC1` (configuration not stated) [procyclidine hydrochloride], the “APOC3 transcript change (Z-score)” value was determined as 0.459. With `Nc1nc(O)c2c(CCc3ccc(C(=O)N[C@@H](CCC(=O)O)C(=O)O)cc3)c[nH]c2n1` [pemetrexed], the “APOC3 transcript change (Z-score)” value was found to be 1.01. In the case of `O=C(/C=C/C=C/c1ccc2c(c1)OCO2)N1CCCCC1` [piperine], the “APOC3 transcript change (Z-score)” value was -0.386. Take `C[N+]1(C)C2CC[C@H]1C[C@@H](OC(=O)C(O)c1ccccc1)C2` (some centres not stated) [homatropine methylbromide]: the “APOC3 transcript change (Z-score)” value was -0.277.

In the case of `O=C1C(CCS(=O)c2ccccc2)C(=O)N(c2ccccc2)N1c1ccccc1` (configuration not stated) [sulfinpyrazone], the “APOC3 transcript change (Z-score)” value was -1.24. As for `C[N+](C)(C)CC(=O)O` [betaine hydrochloride], the figure is 0.513. For `CC1(C)NC(=O)N(c2ccc([N+](=O)[O-])c(C(F)(F)F)c2)C1=O` [nilutamide], the “APOC3 transcript change (Z-score)” value was -0.876. Consider `Fc1ccc(C(c2ccc(F)cc2)N2CCN(C/C=C/c3ccccc3)CC2)cc1` [Flunarizine dihydrochloride], for which the “APOC3 transcript change (Z-score)” value is -0.143. On to `CC(=O)OC(C)C[N+](C)(C)C` (configuration not stated) [methacholine chloride], for which the “APOC3 transcript change (Z-score)” value came to 0.248.

For `C[C@]12CC[C@@H]3c4ccc(OC(=O)c5ccccc5)cc4CC[C@H]3[C@@H]1CC[C@@H]2O` [estradiol benzoate], the “APOC3 transcript change (Z-score)” value worked out at 0.22.

As for `CS(=O)(=O)c1ccc(C2=C(c3ccccc3)C(=O)OC2)cc1` [rofecoxib], the “APOC3 transcript change (Z-score)” value worked out at 0.00484. For `CC(=O)NCCCS(=O)(=O)[O-]->[Ca+2]<-[O-]S(=O)(=O)CCCNC(C)=O` [acamprosate calcium], the “APOC3 transcript change (Z-score)” value is 0.316. For the compound `O=C(NCc1ccccc1)OCCO` [buramate], the “APOC3 transcript change (Z-score)” value was -0.0503. With `N=C(N)/N=C(\N)NCCc1ccccc1` [phenformin hydrochloride], the “APOC3 transcript change (Z-score)” value was -0.885.

`COC(=O)/C=C/C(=O)OC` [dimethyl fumarate]: the “APOC3 transcript change (Z-score)” value stood at 0.545.

In the case of `OC(CNCC(O)C1CCc2cc(F)ccc2O1)C1CCc2cc(F)ccc2O1` (configuration not stated) [nebivolol hydrochloride], the “APOC3 transcript change (Z-score)” value stood at 0.335. For the compound `Cc1cc(C(C)(C)CC(C)(C)C)cc(Cc2cc(C(C)(C)CC(C)(C)C)cc(Cc3cc(C(C)(C)CC(C)(C)C)ccc3OCCO)c2OCCO)c1OCCO` [tyloxapol], the “APOC3 transcript change (Z-score)” value was 0.14. As for `N[C@@H](Cc1cc(I)c(Oc2ccc(O)c(I)c2)c(I)c1)C(=O)O` [liothyronine sodium], the figure is -1.32; as for `CCN(CC)C(=O)C1(c2ccccc2)CC1CN` (configuration not stated) [milnacipran hydrochloride], 0.544. Consider `S=P(N1CC1)(N1CC1)N1CC1` [thiotepa], for which the “APOC3 transcript change (Z-score)” value was -0.0906. `CN(C)CCCN1c2ccccc2Sc2ccc(C(F)(F)F)cc21` [triflupromazine hydrochloride]: the “APOC3 transcript change (Z-score)” value was 0.991. Consider `CCC(C)C(N)C1=NC(C(=O)NC(CC(C)C)C(=O)NC(CCC(=O)O)C(=O)NC(C(=O)NCCCCC2NC(=O)C(CC(N)=O)NC(=O)C(CC(=O)O)NC(=O)C(Cc3c[nH]cn3)NC(=O)C(Cc3ccccc3)NC(=O)C(C(C)CC)NC(=O)C(CCCN)NC2=O)C(C)CC)CS1` (configuration not stated) [bacitracin], for which the “APOC3 transcript change (Z-score)” value amounted to 0.496. On to `CC(=O)Oc1ccc(C(c2ccc(OC(C)=O)cc2)c2ccccn2)cc1` [bisacodyl], for which the “APOC3 transcript change (Z-score)” value worked out at 0.971. As to `O=C(O)c1ccccc1Nc1cccc(C(F)(F)F)c1` [flufenamic acid], the “APOC3 transcript change (Z-score)” value was -0.0411. For `Nc1nc2ccc(OC(F)(F)F)cc2s1` [Riluzole], the “APOC3 transcript change (Z-score)” value is -0.481.

On to `CN(C)N=Nc1[nH]cnc1C(N)=O` [dacarbazine], for which the “APOC3 transcript change (Z-score)” value came out at 0.582. Regarding `C=Cc1c(C)c2[n]3c1C=C1C(C)=C(CC)C4=[N+]1[Cu]31[n]3c(c(C)c(C(=O)O)c3=C(CC(=O)O)C3=[N+]1C(=C2)C(C)C3CCC(=O)O)=C4` (configuration not stated) [chlorophyllide cu complex na salt], the “APOC3 transcript change (Z-score)” value is 0.131. To `Nc1ccc(S(=O)(=O)Nc2cnc3ccccc3n2)cc1` [sulfaquinoxaline sodium] belongs -0.694. For the compound `OC[C@H]1O[C@H](O[C@]2(CCl)O[C@H](CCl)[C@@H](O)[C@@H]2O)[C@H](O)[C@@H](O)[C@H]1Cl` [sucralose], the “APOC3 transcript change (Z-score)” value was -0.168.

Consider `CN(C)CC[C@@H](c1ccc(Cl)cc1)c1ccccn1` [dexchlorpheniramine maleate], for which the “APOC3 transcript change (Z-score)” value was -0.1.

`C[C@H]1OC(n2cc(F)c(=O)[nH]c2=O)C(O)[C@@H]1O` (some centres not stated) [5-fluoro-5'-deoxyuridine]: the “APOC3 transcript change (Z-score)” value is -0.103. For `Cc1ccc(-c2cc(C(F)(F)F)nn2-c2ccc(S(N)(=O)=O)cc2)cc1` [celecoxib], the “APOC3 transcript change (Z-score)” value was -0.341. As for `Clc1ccc(CCC(Cn2ccnc2)Sc2c(Cl)cccc2Cl)cc1` (configuration not stated) [butoconazole], the “APOC3 transcript change (Z-score)” value was 0.0427. As for `CCOC(=O)O[C@]1(C(=O)COC(=O)CC)CC[C@H]2[C@@H]3CCC4=CC(=O)C=C[C@]4(C)[C@H]3[C@@H](O)C[C@@]21C` [prednicarbate], the figure is 0.131; as for `COc1ccc2c(c1OC)C(=O)O[C@@H]2[C@H]1c2c(cc3c(c2OC)OCO3)CCN1C` [noscapine hydrochloride], 0.205. To `CNC[C@H](O)c1ccc(O)c(O)c1` [adrenaline bitartrate] belongs -0.533. As to `O=C(O)CCCCCCCC(=O)O` [azelaic acid], the “APOC3 transcript change (Z-score)” value was -0.144. As for `CC(S)C(=O)NCC(=O)O` (configuration not stated) [tiopronin], the figure is -0.772. To `CCN(CC)C(C)CN1c2ccccc2Sc2ccccc21` (configuration not stated) [ethopropazine hydrochloride] belongs 0.433; to `CC(=O)NS(=O)(=O)c1ccc(NC(=O)c2ccccc2C(=O)O)cc1` [phthalylsulfacetamide], -0.489.

For `NC[C@H]1O[C@H](O[C@H]2[C@H](O)[C@@H](O[C@H]3O[C@H](CO)[C@@H](O)[C@H](N)[C@H]3O)[C@H](N)C[C@@H]2N)[C@H](N)[C@@H](O)[C@@H]1O` [becanamycin sulfate], the “APOC3 transcript change (Z-score)” value was -0.0019.

With `Oc1c(I)cc(Cl)c2cccnc12` [clioquinol], the “APOC3 transcript change (Z-score)” value stood at 0.336. As for `C[N+](C)(C)CCO` [choline chloride], the “APOC3 transcript change (Z-score)” value is -0.436. For `Cc1cc(CC(C)CC(C)(C)C)n(O)c(=O)c1.NCCO` (configuration not stated) [piroctone olamine], the “APOC3 transcript change (Z-score)” value is 2.46. In the case of `C#C[C@]1(O)CCC2C3CCC4=CC(=O)CC[C@@H]4C3CCC21CC` (some centres not stated) [norgestrel], the “APOC3 transcript change (Z-score)” value turned out to be 0.836.

As for `CO[C@@H]1[C@@H](OC(N)=O)[C@@H](O)[C@H](Oc2ccc3c(O)c(NC(=O)c4ccc(O)c(CC=C(C)C)c4)c(=O)oc3c2C)OC1(C)C` [novobiocin sodium], the “APOC3 transcript change (Z-score)” value worked out at 0.665.
